Results are given in words; binding and its absence hold for the method and conditions named. Binding seen in cells or lysates may run through a third protein. Some binding calls cover weakened binding; strength is not graded here.

By UniProt entry, the sequences of proteins in these tests, tags left out.
UniProt P05556: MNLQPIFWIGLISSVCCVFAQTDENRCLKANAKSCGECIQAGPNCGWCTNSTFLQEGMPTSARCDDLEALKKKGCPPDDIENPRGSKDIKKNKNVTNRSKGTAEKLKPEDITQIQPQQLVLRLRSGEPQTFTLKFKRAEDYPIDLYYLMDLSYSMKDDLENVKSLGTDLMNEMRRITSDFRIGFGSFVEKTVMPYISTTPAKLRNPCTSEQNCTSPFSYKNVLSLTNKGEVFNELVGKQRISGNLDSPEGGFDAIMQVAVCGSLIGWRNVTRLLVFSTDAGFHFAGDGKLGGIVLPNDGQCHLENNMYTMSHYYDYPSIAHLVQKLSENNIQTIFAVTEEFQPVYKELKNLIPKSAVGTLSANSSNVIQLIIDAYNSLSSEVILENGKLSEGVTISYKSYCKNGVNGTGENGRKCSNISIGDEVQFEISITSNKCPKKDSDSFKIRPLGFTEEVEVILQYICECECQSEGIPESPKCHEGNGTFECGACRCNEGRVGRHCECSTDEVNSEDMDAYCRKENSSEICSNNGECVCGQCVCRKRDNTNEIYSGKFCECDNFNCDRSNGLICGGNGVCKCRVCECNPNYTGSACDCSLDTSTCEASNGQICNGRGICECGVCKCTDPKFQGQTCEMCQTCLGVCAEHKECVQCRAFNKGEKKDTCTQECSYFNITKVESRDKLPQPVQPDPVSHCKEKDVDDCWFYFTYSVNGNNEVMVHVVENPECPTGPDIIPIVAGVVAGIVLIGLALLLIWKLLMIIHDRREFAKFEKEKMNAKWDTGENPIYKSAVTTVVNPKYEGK
UniProt Q12809: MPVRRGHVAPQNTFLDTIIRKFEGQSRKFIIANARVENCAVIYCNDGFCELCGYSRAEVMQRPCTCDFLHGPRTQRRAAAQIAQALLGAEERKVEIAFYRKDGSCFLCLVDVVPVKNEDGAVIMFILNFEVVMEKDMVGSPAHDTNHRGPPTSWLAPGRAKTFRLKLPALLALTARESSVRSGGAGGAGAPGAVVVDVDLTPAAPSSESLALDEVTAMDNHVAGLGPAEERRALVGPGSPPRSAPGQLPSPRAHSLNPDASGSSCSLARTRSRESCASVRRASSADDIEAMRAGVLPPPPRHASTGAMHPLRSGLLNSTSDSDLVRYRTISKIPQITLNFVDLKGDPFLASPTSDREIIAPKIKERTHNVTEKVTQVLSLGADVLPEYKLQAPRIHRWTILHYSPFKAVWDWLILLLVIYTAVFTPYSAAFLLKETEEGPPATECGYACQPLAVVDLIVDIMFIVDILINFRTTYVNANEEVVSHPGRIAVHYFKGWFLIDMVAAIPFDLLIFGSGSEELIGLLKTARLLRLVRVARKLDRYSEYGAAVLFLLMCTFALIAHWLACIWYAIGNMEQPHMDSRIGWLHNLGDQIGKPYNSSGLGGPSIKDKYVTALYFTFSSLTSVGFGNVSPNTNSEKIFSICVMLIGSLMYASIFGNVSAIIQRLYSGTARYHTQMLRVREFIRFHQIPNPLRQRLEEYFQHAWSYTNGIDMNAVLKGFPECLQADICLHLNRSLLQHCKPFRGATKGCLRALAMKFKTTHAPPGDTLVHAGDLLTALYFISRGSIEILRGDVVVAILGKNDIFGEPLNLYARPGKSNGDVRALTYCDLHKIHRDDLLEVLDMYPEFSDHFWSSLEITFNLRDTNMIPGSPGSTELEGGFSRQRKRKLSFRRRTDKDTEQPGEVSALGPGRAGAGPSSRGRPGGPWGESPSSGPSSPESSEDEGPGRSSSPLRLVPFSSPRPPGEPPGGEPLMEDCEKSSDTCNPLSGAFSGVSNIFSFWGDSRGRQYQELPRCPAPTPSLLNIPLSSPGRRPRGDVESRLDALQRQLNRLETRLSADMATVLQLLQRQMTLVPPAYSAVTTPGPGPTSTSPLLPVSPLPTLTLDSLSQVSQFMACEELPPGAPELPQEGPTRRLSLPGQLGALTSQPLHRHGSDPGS

In publication PMC10624597 one finds binding data, which are given here for four substances.

The target in assay [1] is β1 integrin (human (endogenous in HEK 293, PANC-1, HCT116)) (UniProt P05556). Put plainly: condition: only cells treated overnight with PTX (100 ng/ml); co-IP; HEK–hERG1 cells treated overnight with PTX (100 ng/ml) and seeded on FN for 90 min; co-IP of Gαi3 and β1 integrin.
The target is the same in assay [2]. Put plainly: co-IP; HEK 293 cells stably expressing hERG1 (wild type, K525C or R531C), starved overnight, seeded on FN, T0 to T300; 1% NP-40 lysate (150 mM NaCl, 50 mM Tris–HCl pH 8, 5 mM EDTA), 1.5 mg protein; IP with the anti-β1 antibody TS2/16 overnight at 4°C, Western blot; also cells stimulated with TS2/16 and treated with PTX, gallein, LY294002 or scDb–hERG1–β1 (20 μg/ml). (In general: Immunoblotting shows a protein as a band on a membrane.)

In assay [3] the target is hERG1 potassium channel (K+ channel encoded by the human ether-à-go-go-related gene 1) (human) (UniProt Q12809). Put plainly: co-IP; HEK–hERG1 cells seeded on FN at T90; co-IP between Gαi3 and hERG1; precipitating antibody not stated for this panel.
Assay [4] concerns the target β1 integrin (human (endogenous in HEK 293, PANC-1, HCT116)) (UniProt P05556). In words: co-IP; HEK–hERG1 cells seeded on BSA-coated dishes instead of FN; time course; IP with TS2/16.
Assay [5] has the same target. In words: co-IP; HEK–hERG1–Tr and HEK–KCNE1–hERG1–Tr cells seeded on FN at T90; IP with the TS2/16 antibody.
For assay [6] the target is unchanged. In words: co-IP; PANC-1 cells seeded on FN, time course; IP with the TS2/16 antibody; also cells treated with PTX, scDb–hERG1–β1 (20 μg/ml) or E4031 (40 μM).
For assay [7] the target is unchanged. Put plainly: co-IP; HCT116 cells seeded on FN, time course; IP with the TS2/16 antibody; also cells treated with PTX, scDb–hERG1–β1 (20 μg/ml) or E4031 (40 μM).

Take Gαi3 (from UniProt P08754 1-354): the binding result was “no binding” in assay [1], “binds” in assay [2] and “no binding” in assay [3].

Regarding “hERG1 potassium channel (K+ channel encoded by the human ether-à-go-go-related gene 1) (from UniProt Q12809 1-1159)”, the binding result in assay [2] is given as “binds”; in assay [4] it was “no binding (condition: cells seeded on BSA instead of FN)”.

Regarding “hERG1 transiently transfected in HEK 293 cells (HEK–hERG1–Tr, HEK–KCNE1–hERG1–Tr) (from UniProt Q12809 1-1159)”, in assay [5], the binding entry was “binds”.

In the case of “hERG1, endogenous in PANC-1 and HCT116 cancer cells (from UniProt Q12809 1-1159)”, the binding result in assay [6] and in assay [7] was “binds” each time.
